No constants are given. Whether binding was seen depends on the method and setting. In cells and extracts the contact can be indirect. Here binding means that the protein was enriched with, or labelled near, the bait; the list need not be complete.
B1: Dipeptidyl peptidase 3 (DPP3), endogenous in TREx-Hek-293T (protein, UniProt Q9NY33 1-737)
chain: MADTQYILPNDIGVSSLDCREAFRLLSPTERLYAYHLSRAAWYGGLAVLLQTSPEAPYIYALLSRLFRAQDPDQLRQHALAEGLTEEEYQAFLVYAAGVYSNMGNYKSFGDTKFVPNLPKEKLERVILGSEAAQQHPEEVRGLWQTCGELMFSLEPRLRHLGLGKEGITTYFSGNCTMEDAKLAQDFLDSQNLSAYNTRLFKEVDGEGKPYYEVRLASVLGSEPSLDSEVTSKLKSYEFRGSPFQVTRGDYAPILQKVVEQLEKAKAYAANSHQGQMLAQYIESFTQGSIEAHKRGSRFWIQDKGPIVESYIGFIESYRDPFGSRGEFEGFVAVVNKAMSAKFERLVASAEQLLKELPWPPTFEKDKFLTPDFTSLDVLTFAGSGIPAGINIPNYDDLRQTEGFKNVSLGNVLAVAYATQREKLTFLEEDDKDLYILWKGPSFDVQVGLHELLGHGSGKLFVQDEKGAFNFDQETVINPETGEQIQSWYRSGETWDSKFSTIASSYEECRAESVGLYLCLHPQVLEIFGFEGADAEDVIYVNWLNMVRAGLLALEFYTPEAFNWRQAHMQARFVILRVLLEAGEGLVTITPTTGSDGRPDARVRLDRSKIRSVGKPALERFLRRLQVLKSTGDVAGGRALYEGYATVTDAPPECFLTLRDTVLLRKESRKLIVQPNTRLEGSDVQLLEYEASAAGLIRSFSERFPEDGPELEEILTQLATADARFWKGPSEAPSGQA
B2: MCC regulator of WNT signaling pathway (MCC), endogenous in TREx-Hek-293T (protein, UniProt P23508 1-829)
chain: MNSGVAMKYGNDSSAELSELHSAALASLKGDIVELNKRLQQTERERDLLEKKLAKAQCEQSHLMREHEDVQERTTLRYEERITELHSVIAELNKKIDRLQGTTIREEDEYSELRSELSQSQHEVNEDSRSMDQDQTSVSIPENQSTMVTADMDNCSDLNSELQRVLTGLENVVCGRKKSSCSLSVAEVDKHIEQLTTASEHCDLAIKTVEEIEGVLGRDLYPNLAEERSRWEKELAGLREENESLTAMLCSKEEELNRTKATMNAIREERDRLRRRVRELQTRLQSVQATGPSSPGRLTSTNRPINPSTGELSTSSSSNDIPIAKIAERVKLSKTRSESSSSDRPVLGSEISSIGVSSSVAEHLAHSLQDCSNIQEIFQTLYSHGSAISESKIREFEVETERLNSRIEHLKSQNDLLTITLEECKSNAERMSMLVGKYESNATALRLALQYSEQCIEAYELLLALAESEQSLILGQFRAAGVGSSPGDQSGDENITQMLKRAHDCRKTAENAAKALLMKLDGSCGGAFAVAGCSVQPWESLSSNSHTSTTSSTASSCDTEFTKEDEQRLKDYIQQLKNDRAAVKLTMLELESIHIDPLSYDVKPRGDSQRLDLENAVLMQELMAMKEEMAELKAQLYLLEKEKKALELKLSTREAQEQAYLVHIEHLKSEVEEQKEQRMRSLSSTSSGSKDKPGKECADAASPALSLAELRTTCSENELAAEFTNAIRREKKLKARVQELVSALERLTKSSEIRHQQSAEFVNDLKRANSNLVAAYEKAKKKHQNKLKKLESQMMAMVERHETQVRMLKQRIALLEEENSRPHTNETSL

By UniProt entry, the sequences of proteins in these tests, tags left out. Where a name states a change or a piece, a line headed by the entry shows the natural chain unless it says otherwise.
UniProt Q14145: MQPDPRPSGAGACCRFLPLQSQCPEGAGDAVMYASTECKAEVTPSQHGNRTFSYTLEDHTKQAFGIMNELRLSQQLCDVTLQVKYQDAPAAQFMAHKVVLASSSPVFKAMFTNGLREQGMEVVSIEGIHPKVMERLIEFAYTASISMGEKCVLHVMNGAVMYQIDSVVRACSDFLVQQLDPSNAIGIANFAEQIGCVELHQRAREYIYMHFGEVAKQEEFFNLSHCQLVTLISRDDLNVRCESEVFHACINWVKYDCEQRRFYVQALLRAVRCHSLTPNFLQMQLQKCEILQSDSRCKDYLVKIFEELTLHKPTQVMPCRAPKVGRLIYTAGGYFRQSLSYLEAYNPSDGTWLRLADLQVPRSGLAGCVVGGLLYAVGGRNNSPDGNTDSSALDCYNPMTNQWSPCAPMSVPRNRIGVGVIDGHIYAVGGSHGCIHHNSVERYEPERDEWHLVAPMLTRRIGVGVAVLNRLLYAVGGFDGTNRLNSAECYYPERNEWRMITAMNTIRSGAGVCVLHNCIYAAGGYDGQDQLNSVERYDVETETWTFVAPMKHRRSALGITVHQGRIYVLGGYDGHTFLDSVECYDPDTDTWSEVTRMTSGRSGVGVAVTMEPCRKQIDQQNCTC
UniProt Q8IXI2: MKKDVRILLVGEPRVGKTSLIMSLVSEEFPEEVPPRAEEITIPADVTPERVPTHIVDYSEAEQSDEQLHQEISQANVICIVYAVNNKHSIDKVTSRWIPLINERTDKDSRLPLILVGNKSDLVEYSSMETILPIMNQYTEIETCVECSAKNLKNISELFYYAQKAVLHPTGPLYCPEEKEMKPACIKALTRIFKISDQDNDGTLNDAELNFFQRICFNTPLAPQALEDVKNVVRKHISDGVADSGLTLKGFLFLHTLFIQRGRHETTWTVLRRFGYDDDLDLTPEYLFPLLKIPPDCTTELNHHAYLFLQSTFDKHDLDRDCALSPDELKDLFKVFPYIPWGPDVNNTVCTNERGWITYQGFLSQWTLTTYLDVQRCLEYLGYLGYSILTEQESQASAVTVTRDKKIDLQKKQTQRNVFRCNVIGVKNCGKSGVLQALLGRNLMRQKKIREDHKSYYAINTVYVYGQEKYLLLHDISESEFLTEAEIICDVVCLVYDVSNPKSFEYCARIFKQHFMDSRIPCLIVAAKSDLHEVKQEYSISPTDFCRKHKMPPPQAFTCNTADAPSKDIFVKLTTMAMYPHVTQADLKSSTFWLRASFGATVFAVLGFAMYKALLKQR
UniProt Q9H2G2: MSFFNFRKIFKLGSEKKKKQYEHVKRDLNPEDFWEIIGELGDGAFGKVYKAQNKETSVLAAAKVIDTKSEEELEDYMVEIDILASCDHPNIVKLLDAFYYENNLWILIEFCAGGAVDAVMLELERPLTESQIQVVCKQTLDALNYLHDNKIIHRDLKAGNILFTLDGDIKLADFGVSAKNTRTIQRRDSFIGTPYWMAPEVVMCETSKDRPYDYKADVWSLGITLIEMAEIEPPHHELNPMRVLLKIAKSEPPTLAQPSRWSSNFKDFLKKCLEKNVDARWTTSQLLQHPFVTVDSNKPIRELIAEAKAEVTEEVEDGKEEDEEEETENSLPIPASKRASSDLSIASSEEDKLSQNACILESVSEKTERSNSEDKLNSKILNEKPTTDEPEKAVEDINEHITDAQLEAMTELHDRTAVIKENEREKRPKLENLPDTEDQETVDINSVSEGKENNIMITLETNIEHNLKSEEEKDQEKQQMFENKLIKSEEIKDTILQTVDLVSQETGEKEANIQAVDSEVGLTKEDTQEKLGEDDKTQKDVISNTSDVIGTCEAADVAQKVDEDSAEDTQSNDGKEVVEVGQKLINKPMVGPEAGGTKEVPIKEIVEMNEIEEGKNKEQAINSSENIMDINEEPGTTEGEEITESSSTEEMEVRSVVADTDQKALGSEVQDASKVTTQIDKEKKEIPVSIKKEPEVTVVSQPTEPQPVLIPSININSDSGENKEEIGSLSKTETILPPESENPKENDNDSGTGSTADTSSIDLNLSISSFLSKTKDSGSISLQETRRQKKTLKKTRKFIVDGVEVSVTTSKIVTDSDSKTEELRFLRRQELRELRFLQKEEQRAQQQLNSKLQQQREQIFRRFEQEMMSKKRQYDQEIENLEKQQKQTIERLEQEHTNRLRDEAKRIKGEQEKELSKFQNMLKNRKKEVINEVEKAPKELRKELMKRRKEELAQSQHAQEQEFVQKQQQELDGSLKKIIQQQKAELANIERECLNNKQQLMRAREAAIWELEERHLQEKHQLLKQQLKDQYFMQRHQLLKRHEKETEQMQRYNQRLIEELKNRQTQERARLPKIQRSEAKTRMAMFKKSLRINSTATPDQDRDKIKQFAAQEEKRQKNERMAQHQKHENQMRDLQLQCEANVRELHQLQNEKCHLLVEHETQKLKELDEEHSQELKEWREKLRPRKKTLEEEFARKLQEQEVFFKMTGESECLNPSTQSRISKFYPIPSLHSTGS

The molecules below were run against HA- and Strep-tagged KEAP1 R320Q (human) (UniProt Q14145) (assay: affinity purification with mass spectrometry; HA-Strep-KEAP1 (wt, R320Q, R470C) captured on Strep-Tactin sepharose from lysates of doxycycline-induced TREx-Hek-293T cells (50 mM Hepes pH 8.0, 5 mM EDTA, 150 mM NaCl, 50 mM NaF, 0.5 % IGEPAL), eluted with biotin, LC-MS/MS, SAINTexpress; GFP cells as mock).

Row | Molecule | binding
1 | Baculoviral IAP repeat-containing protein 6 (BIRC6), endogenous in TREx-Hek-293T (from UniProt Q9NR09 1-4857) | binds
2 | Ras homolog family member T1 (RHOT1), endogenous in TREx-Hek-293T (from UniProt Q8IXI2 1-618) | binds
3 | STE20 like kinase (SLK), endogenous in TREx-Hek-293T (from UniProt Q9H2G2 1-1235) | binds
4 | B1 | binds
5 | B2 | binds

The molecules below were run against HA- and Strep-tagged KEAP1 R470C (human) (UniProt Q14145) in the same assay as above.

Row | Molecule | binding
6 | Baculoviral IAP repeat-containing protein 6 (BIRC6), endogenous in TREx-Hek-293T (from UniProt Q9NR09 1-4857) | binds
7 | Ras homolog family member T1 (RHOT1), endogenous in TREx-Hek-293T (from UniProt Q8IXI2 1-618) | binds
8 | STE20 like kinase (SLK), endogenous in TREx-Hek-293T (from UniProt Q9H2G2 1-1235) | binds
9 | B1 | binds
10 | B2 | binds

These molecules were tested against HA- and Strep-tagged KEAP1 wild type (Kelch-like ECH-associated protein 1) (human) (UniProt Q14145) in the same assay as above.

Row | Molecule | binding
11 | STE20 like kinase (SLK), endogenous in TREx-Hek-293T (from UniProt Q9H2G2 1-1235) | binds
12 | B1 | binds
